Source: publication PMC9551036, “A selective and orally bioavailable VHL-recruiting PROTAC achieves SMARCA2 degradation in vivo” (Nature Communications, 2022)
Where “and” joins values, the source holds several entries; their conditions need not be identical. Equal values may be shown once. Further values from the same series stand in other lists.

Tested on: panel of cell lines (A549, HCC-364, HCC-515, HCC4006, KYSE-30, LU99, LXFA_629L, LXFA_923L, LXFL_529L, LXFL_1121L, MP38, NCI-H23, NCI-H1355, OV-90, SK-MEL-5 …)
Assay: Cell viability assay (CellTiter Glo) in a panel of cell lines;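 as to % Viability: percent of DMSO-treated control cells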
Assay type: cell-based, human
Procedure: 500–2000 cells were seeded in white, clear bottom 96-well plates (Corning or Perkin Elmer) in 180–200 µl medium per well. The next day, compounds were added using a digital dispenser and a T0 sample was measured for reference. Cells were incubated for 144–192 h, and viability (luminescence) was measured using CellTiter Glo or CellTiter Glo 2.0 (Promega) according to manufacturer’s instructions after equilibrating cells and reagents at room temperature and 10–20 min incubation time while shaking.

Question: What does the source list for `Cc1ncsc1-c1ccc(C(CCC(C)CCN2CCC(c3ccc4c(c3)n(C3CCCC3)c3nc(=O)c5c(Br)cccc5n43)CC2)NC(=O)C2CC(O)CN2C(=O)C(NC(=O)C2(F)CC2)C(C)(C)C)cc1` (centres unmarked) [ACBI2]?
Answer: Bottom (% Viability, four-parameter fit) (A549): 13.02%; Top (% Viability, four-parameter fit) (A549): 116.8%; % Viability (A549, log10 conc -5 mol/l): -0.1374% and 2.57%; % Viability (A549, log10 conc -5.50031 mol/l): 28.8669% and 38.9325%; % Viability (A549, log10 conc -6 mol/l): 40.1754%; % Viability (A549, log10 conc -6.50031 mol/l): 36.282%; % Viability (A549, log10 conc -9 mol/l): 107.686% and 104.787%; % Viability (A549, log10 conc -9.50031 mol/l): 114.76% and 105.547%; % Viability (A549, log10 conc -10 mol/l): 109.903% and 103.691%; % Viability (A549, log10 conc -10.5003 mol/l): 108.588% and 107.269%; Bottom (% Viability, four-parameter fit) (HCC4006): 38.95%; Top (% Viability, four-parameter fit) (HCC4006): 113.9%; % Viability (HCC4006, log10 conc -5.30103 mol/l): 39.1357% and 40.8034%; % Viability (HCC4006, log10 conc -5.90309 mol/l): 34.8567%; % Viability (HCC4006, log10 conc -6.50446 mol/l): 58.4669%; % Viability (HCC4006, log10 conc -8.91364 mol/l): 120.273% and 113.03%; % Viability (HCC4006, log10 conc -9.5157 mol/l): 111.777% and 109.936%; % Viability (HCC4006, log10 conc -10.1175 mol/l): 114.662% and 106.899%; Bottom (% Viability, four-parameter fit) (HCC-364): 16.23%; Top (% Viability, four-parameter fit) (HCC-364): 101.8%; % Viability (HCC-364, log10 conc -5.30103 mol/l): 20.2173% and 17.8517%; % Viability (HCC-364, log10 conc -5.90309 mol/l): 10.9947%; % Viability (HCC-364, log10 conc -6.50446 mol/l): 15.4098%; % Viability (HCC-364, log10 conc -8.91364 mol/l): 106.701% and 101.727%; % Viability (HCC-364, log10 conc -9.5157 mol/l): 102.299% and 102.94%; % Viability (HCC-364, log10 conc -10.1175 mol/l): 99.5144% and 99.0216%; Bottom (% Viability, four-parameter fit) (HCC-515): 20.2%; Top (% Viability, four-parameter fit) (HCC-515): 91.57%; % Viability (HCC-515, log10 conc -6 mol/l): 21.5991%; % Viability (HCC-515, log10 conc -6.50031 mol/l): 25.6456%; % Viability (HCC-515, log10 conc -9 mol/l): 65.5237% and 67.2723%; % Viability (HCC-515, log10 conc -9.50031 mol/l): 78.2414% and 86.6266%; % Viability (HCC-515, log10 conc -10 mol/l): 81.2712% and 94.2405%; % Viability (HCC-515, log10 conc -10.5003 mol/l): 79.5343% and 99.7323%; Top (% Viability, four-parameter fit) (KYSE-30): 102.3%; % Viability (KYSE-30, log10 conc -5.30103 mol/l): 1.425% and 7.245%; % Viability (KYSE-30, log10 conc -5.90309 mol/l): 81.6211%; % Viability (KYSE-30, log10 conc -6.50446 mol/l): 82.9463%; % Viability (KYSE-30, log10 conc -8.91364 mol/l): 106.247% and 103.276%; % Viability (KYSE-30, log10 conc -9.5157 mol/l): 106.171% and 105.016%; % Viability (KYSE-30, log10 conc -10.1175 mol/l): 102.894% and 101.529%; Bottom (% Viability, four-parameter fit) (LU99): 1.403%; Top (% Viability, four-parameter fit) (LU99): 113.7%; % Viability (LU99, log10 conc -5.30103 mol/l): -0.3005% and -0.1061%; % Viability (LU99, log10 conc -5.90309 mol/l): 11.7371% and 3.8963%; % Viability (LU99, log10 conc -6.50446 mol/l): 18.0569%; % Viability (LU99, log10 conc -8.91364 mol/l): 117.53% and 116.862%; % Viability (LU99, log10 conc -9.5157 mol/l): 115.098% and 115.309%; % Viability (LU99, log10 conc -10.1175 mol/l): 103.339% and 106.134%; Bottom (% Viability, four-parameter fit) (LXFA_629L): 4.408%; Top (% Viability, four-parameter fit) (LXFA_629L): 103.2%; % Viability (LXFA_629L, log10 conc -5 mol/l): -0.1579% and -0.1591%; % Viability (LXFA_629L, log10 conc -5.50031 mol/l): 3.766% and 1.726%; % Viability (LXFA_629L, log10 conc -6 mol/l): 11.0009%; % Viability (LXFA_629L, log10 conc -6.50031 mol/l): 19.3352%; % Viability (LXFA_629L, log10 conc -9 mol/l): 96.6536% and 97.2919%; % Viability (LXFA_629L, log10 conc -9.50031 mol/l): 103.522% and 98.2665%; % Viability (LXFA_629L, log10 conc -10 mol/l): 102.461% and 99.7874%; % Viability (LXFA_629L, log10 conc -10.5003 mol/l): 92.1766% and 98.0864%; Bottom (% Viability, four-parameter fit) (LXFA_923L): 5.956%; Top (% Viability, four-parameter fit) (LXFA_923L): 119.4%; % Viability (LXFA_923L, log10 conc -5 mol/l): -0.1442% and -0.0545%; % Viability (LXFA_923L, log10 conc -5.50031 mol/l): 10.2166% and 18.3827%; % Viability (LXFA_923L, log10 conc -6 mol/l): 20.0341%; % Viability (LXFA_923L, log10 conc -6.50031 mol/l): 26.0427%; % Viability (LXFA_923L, log10 conc -7 mol/l): 27.9454% and 28.6792%; % Viability (LXFA_923L, log10 conc -9 mol/l): 83.2369% and 88.6338%; % Viability (LXFA_923L, log10 conc -9.50031 mol/l): 100.595% and 97.3381%; % Viability (LXFA_923L, log10 conc -10 mol/l): 94.6277% and 107.522%; % Viability (LXFA_923L, log10 conc -10.5003 mol/l): 100.788% and 114.758%; Bottom (% Viability, four-parameter fit) (LXFL_529L): 1.803%; Top (% Viability, four-parameter fit) (LXFL_529L): 115.4%; % Viability (LXFL_529L, log10 conc -5 mol/l): -0.2275% and -0.2915%; % Viability (LXFL_529L, log10 conc -5.50031 mol/l): 1.427% and 1.018%; % Viability (LXFL_529L, log10 conc -6 mol/l): 6.337%; % Viability (LXFL_529L, log10 conc -6.50031 mol/l): 9.0758%; % Viability (LXFL_529L, log10 conc -7 mol/l): 11.8024%; % Viability (LXFL_529L, log10 conc -9 mol/l): 37.1344% and 45.876%; % Viability (LXFL_529L, log10 conc -9.50031 mol/l): 62.3969% and 71.188%; % Viability (LXFL_529L, log10 conc -10 mol/l): 75.0423% and 80.5456%; % Viability (LXFL_529L, log10 conc -10.5003 mol/l): 79.3021% and 94.5269%; Top (% Viability, four-parameter fit) (LXFL_1121L): 103.2%; % Viability (LXFL_1121L, log10 conc -5 mol/l): 0.9252% and 0.3599%; % Viability (LXFL_1121L, log10 conc -5.50031 mol/l): 78.711% and 94.6959%; % Viability (LXFL_1121L, log10 conc -6 mol/l): 103.113%; % Viability (LXFL_1121L, log10 conc -6.50031 mol/l): 98.8113%; % Viability (LXFL_1121L, log10 conc -7 mol/l): 98.81%; % Viability (LXFL_1121L, log10 conc -9 mol/l): 107.363% and 113.991%; % Viability (LXFL_1121L, log10 conc -9.50031 mol/l): 107.228% and 111.35%; % Viability (LXFL_1121L, log10 conc -10 mol/l): 102.749% and 106.981%; % Viability (LXFL_1121L, log10 conc -10.5003 mol/l): 101.922% and 106.367%; Bottom (% Viability, four-parameter fit) (MP38): 0.5751%; Top (% Viability, four-parameter fit) (MP38): 100.1%; % Viability (MP38, log10 conc -5 mol/l): -0.2804% and -0.0183%; % Viability (MP38, log10 conc -5.50031 mol/l): 2.294% and 2.158%; % Viability (MP38, log10 conc -6 mol/l): 1.8016%; % Viability (MP38, log10 conc -6.50031 mol/l): 0.4587%; % Viability (MP38, log10 conc -7 mol/l): 1.199%; % Viability (MP38, log10 conc -9 mol/l): 96.5713% and 94.9035%; % Viability (MP38, log10 conc -9.50031 mol/l): 104.952% and 103.401%; % Viability (MP38, log10 conc -10 mol/l): 95.4661% and 92.9492%; % Viability (MP38, log10 conc -10.5003 mol/l): 101.896% and 104.542%; Top (% Viability, four-parameter fit) (NCI-H23): 98.08%; % Viability (NCI-H23, log10 conc -5.30103 mol/l): 0.1672% and 7.077%; % Viability (NCI-H23, log10 conc -5.90309 mol/l): 84.1185%; % Viability (NCI-H23, log10 conc -6.50446 mol/l): 90.9419%; % Viability (NCI-H23, log10 conc -8.91364 mol/l): 95.7855% and 110.036%; % Viability (NCI-H23, log10 conc -9.5157 mol/l): 99.9548% and 109.433%; % Viability (NCI-H23, log10 conc -10.1175 mol/l): 94.0472% and 104.784%; Bottom (% Viability, four-parameter fit) (NCI-H1355): 37.08%; Top (% Viability, four-parameter fit) (NCI-H1355): 98.74%; % Viability (NCI-H1355, log10 conc -8.91364 mol/l): 94.5379% and 99.7786%; % Viability (NCI-H1355, log10 conc -9.5157 mol/l): 97.2854% and 103.36%; % Viability (NCI-H1355, log10 conc -10.1175 mol/l): 93.3347% and 101.753%; Bottom (% Viability, four-parameter fit) (OV-90): 32.83%; Top (% Viability, four-parameter fit) (OV-90): 104.1%; % Viability (OV-90, log10 conc -5.30103 mol/l): 26.9189% and 37.7653%; % Viability (OV-90, log10 conc -5.90309 mol/l): 41.2909%; % Viability (OV-90, log10 conc -6.50446 mol/l): 44.8049%; % Viability (OV-90, log10 conc -8.91364 mol/l): 96.0338% and 104.921%; % Viability (OV-90, log10 conc -9.5157 mol/l): 94.2442% and 107.983%; % Viability (OV-90, log10 conc -10.1175 mol/l): 101.454% and 110.843%; Bottom (% Viability, four-parameter fit) (SK-MEL-5): 0.627%; Top (% Viability, four-parameter fit) (SK-MEL-5): 83.26%; % Viability (SK-MEL-5, log10 conc -5.30103 mol/l): 0.2128% and -0.1687%; % Viability (SK-MEL-5, log10 conc -5.90309 mol/l): 1.025%; % Viability (SK-MEL-5, log10 conc -6.50446 mol/l): 1.277%; % Viability (SK-MEL-5, log10 conc -8.91364 mol/l): 43.9093% and 76.9393%; % Viability (SK-MEL-5, log10 conc -9.5157 mol/l): 57.8162% and 85.5386%; % Viability (SK-MEL-5, log10 conc -10.1175 mol/l): 72.3673% and 94.158%; Top (% Viability, four-parameter fit) (TOV-112D): 105.4%; % Viability (TOV-112D, log10 conc -5.30103 mol/l): 47.8559% and 46.2285%; % Viability (TOV-112D, log10 conc -5.90309 mol/l): 99.1574%; % Viability (TOV-112D, log10 conc -6.50446 mol/l): 102.024%; % Viability (TOV-112D, log10 conc -8.91364 mol/l): 102.723% and 100.251%; % Viability (TOV-112D, log10 conc -9.5157 mol/l): 112.405% and 107.421%; % Viability (TOV-112D, log10 conc -10.1175 mol/l): 108.034% and 102.966%
